Assay results from publication doi:10.1101/2022.10.14.512051.

Amino acid sequences for entries named in this document (tags omitted).
UniProt Q13620: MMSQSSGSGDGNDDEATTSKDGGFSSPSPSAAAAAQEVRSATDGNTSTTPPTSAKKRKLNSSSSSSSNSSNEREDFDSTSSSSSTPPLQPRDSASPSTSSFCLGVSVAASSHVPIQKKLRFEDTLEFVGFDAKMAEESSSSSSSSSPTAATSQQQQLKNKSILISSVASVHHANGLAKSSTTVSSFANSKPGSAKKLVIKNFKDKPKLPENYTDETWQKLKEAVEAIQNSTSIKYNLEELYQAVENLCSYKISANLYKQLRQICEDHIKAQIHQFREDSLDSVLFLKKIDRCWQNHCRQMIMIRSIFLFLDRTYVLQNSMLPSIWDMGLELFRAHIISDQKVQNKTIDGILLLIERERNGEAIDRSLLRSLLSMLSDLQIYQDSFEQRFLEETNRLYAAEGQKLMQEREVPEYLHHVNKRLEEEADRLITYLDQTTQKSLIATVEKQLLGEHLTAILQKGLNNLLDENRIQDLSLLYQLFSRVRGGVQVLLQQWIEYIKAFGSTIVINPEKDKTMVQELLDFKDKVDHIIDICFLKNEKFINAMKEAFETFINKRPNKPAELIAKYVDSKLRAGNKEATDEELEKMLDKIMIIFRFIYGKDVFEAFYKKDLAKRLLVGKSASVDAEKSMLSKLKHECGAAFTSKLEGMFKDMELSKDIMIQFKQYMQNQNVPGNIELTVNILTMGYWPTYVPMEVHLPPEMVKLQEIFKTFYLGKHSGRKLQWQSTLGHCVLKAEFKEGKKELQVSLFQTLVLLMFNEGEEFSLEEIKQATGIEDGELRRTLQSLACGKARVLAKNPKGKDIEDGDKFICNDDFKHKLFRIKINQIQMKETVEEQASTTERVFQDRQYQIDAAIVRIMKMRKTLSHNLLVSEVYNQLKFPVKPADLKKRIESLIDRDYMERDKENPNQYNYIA
UniProt Q16531: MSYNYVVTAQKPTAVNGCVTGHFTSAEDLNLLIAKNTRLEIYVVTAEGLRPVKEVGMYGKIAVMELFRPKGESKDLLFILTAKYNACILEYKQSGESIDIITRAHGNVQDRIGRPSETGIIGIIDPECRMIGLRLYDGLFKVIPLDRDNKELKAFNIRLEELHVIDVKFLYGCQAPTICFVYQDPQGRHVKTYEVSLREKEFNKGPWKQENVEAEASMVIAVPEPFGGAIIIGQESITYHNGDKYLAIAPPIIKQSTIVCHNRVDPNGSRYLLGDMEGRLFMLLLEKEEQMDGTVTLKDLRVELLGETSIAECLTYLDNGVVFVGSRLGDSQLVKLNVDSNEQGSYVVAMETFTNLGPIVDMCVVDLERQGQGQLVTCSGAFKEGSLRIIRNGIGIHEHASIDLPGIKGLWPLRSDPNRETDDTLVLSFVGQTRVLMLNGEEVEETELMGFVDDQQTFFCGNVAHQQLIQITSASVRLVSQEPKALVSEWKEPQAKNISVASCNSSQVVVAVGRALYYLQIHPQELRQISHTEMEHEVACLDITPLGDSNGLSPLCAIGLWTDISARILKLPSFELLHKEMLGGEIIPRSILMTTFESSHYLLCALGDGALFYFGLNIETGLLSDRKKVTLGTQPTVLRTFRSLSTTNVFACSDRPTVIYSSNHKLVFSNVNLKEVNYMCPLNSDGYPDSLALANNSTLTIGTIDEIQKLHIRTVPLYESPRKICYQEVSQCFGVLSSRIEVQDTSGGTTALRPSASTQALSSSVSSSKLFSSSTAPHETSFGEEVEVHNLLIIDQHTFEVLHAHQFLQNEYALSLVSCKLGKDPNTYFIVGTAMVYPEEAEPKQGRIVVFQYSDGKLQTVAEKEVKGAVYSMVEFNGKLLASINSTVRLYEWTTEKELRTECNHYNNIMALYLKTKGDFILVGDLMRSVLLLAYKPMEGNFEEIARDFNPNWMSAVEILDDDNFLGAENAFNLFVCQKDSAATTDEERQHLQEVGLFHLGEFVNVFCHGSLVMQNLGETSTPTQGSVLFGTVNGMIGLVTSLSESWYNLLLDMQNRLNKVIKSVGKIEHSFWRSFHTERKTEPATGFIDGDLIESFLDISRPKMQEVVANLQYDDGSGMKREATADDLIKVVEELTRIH
UniProt Q86VP6: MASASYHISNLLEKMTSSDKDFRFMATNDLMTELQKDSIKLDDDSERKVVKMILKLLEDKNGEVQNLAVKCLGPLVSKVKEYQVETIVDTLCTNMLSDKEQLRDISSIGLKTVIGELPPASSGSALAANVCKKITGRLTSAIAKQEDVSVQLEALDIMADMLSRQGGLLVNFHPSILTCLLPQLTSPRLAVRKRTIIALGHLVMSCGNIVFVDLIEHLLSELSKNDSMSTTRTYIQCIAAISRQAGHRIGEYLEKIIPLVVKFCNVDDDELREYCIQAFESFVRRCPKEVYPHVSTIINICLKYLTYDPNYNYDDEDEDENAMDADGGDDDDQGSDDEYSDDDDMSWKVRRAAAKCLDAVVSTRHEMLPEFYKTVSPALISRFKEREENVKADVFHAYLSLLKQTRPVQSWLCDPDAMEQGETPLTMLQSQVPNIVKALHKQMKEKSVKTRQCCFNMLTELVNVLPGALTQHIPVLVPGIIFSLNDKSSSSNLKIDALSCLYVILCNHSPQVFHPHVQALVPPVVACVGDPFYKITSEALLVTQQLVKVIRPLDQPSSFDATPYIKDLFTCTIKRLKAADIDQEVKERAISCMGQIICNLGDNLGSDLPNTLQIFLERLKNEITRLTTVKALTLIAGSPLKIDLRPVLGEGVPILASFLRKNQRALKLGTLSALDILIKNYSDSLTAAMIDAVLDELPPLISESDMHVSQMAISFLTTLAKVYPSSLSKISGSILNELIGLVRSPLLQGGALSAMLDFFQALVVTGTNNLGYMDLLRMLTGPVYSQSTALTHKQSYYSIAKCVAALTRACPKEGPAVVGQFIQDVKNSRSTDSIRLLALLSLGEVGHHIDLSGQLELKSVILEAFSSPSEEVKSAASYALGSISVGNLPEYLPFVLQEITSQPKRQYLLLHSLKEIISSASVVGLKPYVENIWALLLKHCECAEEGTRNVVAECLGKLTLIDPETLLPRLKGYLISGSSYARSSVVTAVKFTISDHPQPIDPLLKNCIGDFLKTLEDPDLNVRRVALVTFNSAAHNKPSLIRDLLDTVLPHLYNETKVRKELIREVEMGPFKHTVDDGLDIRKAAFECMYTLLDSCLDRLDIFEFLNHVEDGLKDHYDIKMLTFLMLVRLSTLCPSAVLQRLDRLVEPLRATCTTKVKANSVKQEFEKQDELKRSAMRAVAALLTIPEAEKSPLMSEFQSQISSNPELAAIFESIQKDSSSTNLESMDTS
UniProt Q13619: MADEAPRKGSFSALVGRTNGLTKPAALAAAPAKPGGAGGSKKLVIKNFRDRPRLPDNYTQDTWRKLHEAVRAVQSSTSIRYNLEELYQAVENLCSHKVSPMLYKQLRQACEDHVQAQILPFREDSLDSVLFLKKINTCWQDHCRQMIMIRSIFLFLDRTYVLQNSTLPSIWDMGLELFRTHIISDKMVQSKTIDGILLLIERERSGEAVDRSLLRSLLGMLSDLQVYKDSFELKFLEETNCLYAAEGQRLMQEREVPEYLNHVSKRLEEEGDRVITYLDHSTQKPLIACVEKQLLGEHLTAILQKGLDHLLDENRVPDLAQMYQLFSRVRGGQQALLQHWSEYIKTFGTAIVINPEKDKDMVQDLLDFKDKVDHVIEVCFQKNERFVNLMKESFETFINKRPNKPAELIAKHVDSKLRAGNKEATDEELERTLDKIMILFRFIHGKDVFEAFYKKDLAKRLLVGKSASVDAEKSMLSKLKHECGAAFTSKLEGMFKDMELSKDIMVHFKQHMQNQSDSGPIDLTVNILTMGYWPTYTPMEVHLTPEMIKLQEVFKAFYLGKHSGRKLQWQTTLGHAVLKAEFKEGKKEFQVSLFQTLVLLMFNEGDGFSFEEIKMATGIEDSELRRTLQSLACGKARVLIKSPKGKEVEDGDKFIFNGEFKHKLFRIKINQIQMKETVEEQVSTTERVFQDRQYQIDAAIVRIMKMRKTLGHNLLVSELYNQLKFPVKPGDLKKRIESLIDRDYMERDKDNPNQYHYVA

These substances were tested against HA-tagged CUL4B, wild type (endogenously tagged) (human (endogenous in HeLa Kyoto)) (UniProt Q13620) (assay: affinity purification with mass spectrometry).

Row | binding | Substance
1 | binds | DDB1 (endogenous) (from UniProt Q16531 1-1140)
2 | binds | CAND1 (endogenous) (from UniProt Q86VP6 1-1230)
3 | binds | CUL4A (endogenous) (from UniProt Q13619 1-759)

These are yes or no findings as the source states them, for the method shown. Binding seen in cells or lysates may run through a third protein. Here binding means that the protein was enriched with, or labelled near, the bait; the list need not be complete.
